This is one part of the list. Further columns of the screen follow, without active or inactive calls. Most of these compounds were active or inconclusive in the main read-out, so they are no random draw. Words in brackets tell the shape of the fitted curve; partial curves, single points and poor fits give uncertain potencies.
Assay: qHTS Assay for Modulators of Lamin A Splicing
Details: HeLa LMNA splicing GFP/RFP minigene ratio, 48 h
Outline: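 S3 HeLa stable clones carrying a lamin A-EGFP splicing minigene plus DsRed2 were seeded at 600 cells/well in Opti-MEM with 2% FBS, pin-dosed and incubated 48 h at 37°C. Acumen cytometry (488 nm) gave the GFP/RFP total-intensity ratio.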

[1] = measured here: RFP viability control channel
[2] = measured here: GFP splicing reporter channel

Q: For `O=c1c2ccccc2cnn1-c1ccc(Br)cc1`, which AC50 [1] is on record?
A: 0.01 µM [rising, full curve, poor fit]

Q: What does the source list for `COc1ccccc1NC(=O)C(C)Sc1nnc2ccc3ccccc3n12` (centres undefined)?
A: AC50 [2]: 6.31 µM [falling, partial curve, poor fit]; AC50 [1]: 0.00447 µM [falling, full curve, poor fit]

Q: Which AC50 [1] does the source give for `Cc1ccc(CNC(=O)CN2C(=O)CCn3nc(-c4ccccc4)cc32)cc1` here?
A: 0.0112 µM [falling, full curve, poor fit]

Q: With `Cc1ccc(-n2ncc(C(=O)NCc3cccs3)c2C2CCN(C(=O)OC(C)(C)C)CC2)cc1` as the molecule, how does the AC50 [1] read?
A: 12.6 µM [rising, single point]

Q: For `OCCN(CCO)c1ccc(C(c2ccccc2Cl)c2ccc(N(CCO)CCO)cc2Cl)c(Cl)c1`, which AC50 [2] is on record?
A: 31.6 µM [falling, single point]

Q: Which AC50 [2] does the source give for `CC(C)N=C(N)/N=C(\N)Nc1ccc(Cl)cc1` here?
A: 1 µM [falling, partial curve, poor fit]

Q: What about the AC50 [1] of the same molecule?
A: 2 µM [falling, full curve, poor fit]

Q: For `C=CCCCCCCCCc1nc(=S)[nH][nH]1`, which AC50 [2] is on record?
A: 11.2 µM [rising, partial curve]

Q: And the AC50 [1]?
A: 31.6 µM [rising, single point]

Q: With `CCCCOc1ccc(C(=O)NCCc2csc(-c3cccc(F)c3)n2)cc1` as the molecule, how does the AC50 [2] read?
A: 0.282 µM [falling, full curve, poor fit]

Q: With `COc1ccccc1NC(=O)CSc1nc2ccccc2n1C(C)=O` as the molecule, how does the AC50 [2] read?
A: 15.8 µM [rising, single point]

Q: And the AC50 [1]?
A: 35.5 µM [rising, single point]

Q: For `Cc1nnc(NC(=O)CSc2n[nH]c(-c3ccccc3)n2)s1`, which AC50 [2] is on record?
A: 0.00891 µM [rising, full curve, poor fit]

Q: Which AC50 [1] does the source give for `COc1cc(/C=N/NC(=O)/C(=C\c2ccc3c(c2)OCO3)NC(=O)c2ccccc2)ccc1O` here?
A: 0.316 µM [rising, full curve, poor fit]

Q: What does the source list for `O=C1c2ccccc2C(=O)C1c1ccccc1`?
A: AC50 [2]: 1.58 µM [falling, full curve, poor fit]; AC50 [1]: 3.55 µM [falling, partial curve, poor fit]

Q: For `CN1CCCN(S(=O)(=O)c2cccc(Cl)c2Cl)CC1`, which AC50 [1] is on record?
A: 35.5 µM [rising, single point]

Q: For `CCOC(=O)C1C(=O)C=C(/C=C/c2ccc(N(C)C)cc2)CC1c1ccccc1` (centres undefined), which AC50 [1] is on record?
A: 15.8 µM [rising, partial curve, poor fit]

Q: Which AC50 [2] does the source give for `NC(=O)NC(=O)CSc1ccccc1` here?
A: 6.31 µM [falling, partial curve, poor fit]

Q: Which AC50 [1] does the source give for `COc1ccc(NC(=O)CCCn2c(=O)c3sccc3n(Cc3ccc(C)cc3C)c2=O)cc1` here?
A: 35.5 µM [rising, single point]

Q: Which AC50 [1] does the source give for `O=C(c1ccc(Br)s1)N(Cc1cccnc1)c1nc2ccc(F)cc2s1` here?
A: 3.16 µM [falling, single point]

Q: Which AC50 [2] does the source give for `CCCn1nc([N+](=O)[O-])c(C(C#N)c2nc3ccccc3s2)c(Cl)c1=O` (centres undefined) here?
A: 35.5 µM [falling, single point]

Q: And the AC50 [1]?
A: 15.8 µM [rising, single point]

Q: Which AC50 [1] does the source give for `O=C(CSc1nc2ccccc2[nH]1)Nc1ccc2c(c1)OCCO2` here?
A: 22.4 µM [rising, single point]

Q: For `CCOc1cccc(NC(=O)C2CC(=O)N(C)C(=Nc3ccc(F)cc3)S2)c1` (centres undefined), which AC50 [2] is on record?
A: 39.8 µM [falling, partial curve, poor fit]

Q: What about the AC50 [1] of the same molecule?
A: 8.91 µM [falling, partial curve, poor fit]

Q: With `COc1cccc(C(=O)N/N=C(\CC(C)C)c2ccccc2)c1` as the molecule, how does the AC50 [2] read?
A: 31.6 µM [rising, single point]

Q: For `O=C(CCCN1C(=O)/C(=C\c2ccccc2)SC1=S)Nc1ccc(O)cc1`, which AC50 [1] is on record?
A: 28.2 µM [falling, single point]

Q: Which AC50 [1] does the source give for `Cc1cccc(Nc2nc(NCc3ccco3)nc(N)c2[N+](=O)[O-])c1` here?
A: 0.501 µM [falling, full curve]

Q: For `O=[N+]([O-])c1cccc(NC2=NCCC2)c1`, which AC50 [1] is on record?
A: 1 µM [falling, full curve]

Q: What does the source list for `COc1cc(NC(=O)CN2C(=O)NC(C)(c3ccc4ccccc4c3)C2=O)c(C)cc1[N+](=O)[O-]` (centres undefined)?
A: AC50 [2]: 12.6 µM [rising, single point]; AC50 [1]: 14.1 µM [rising, partial curve]

Q: With `Cc1cc(C(=O)NCCN2CCN(c3cccc(Cl)c3)CC2)n(-c2ccccc2)n1` as the molecule, how does the AC50 [1] read?
A: 2.82 µM [rising, full curve]

Q: For `CCN(CCNC(=O)c1ccc(CSc2nc3ccncc3[nH]2)cc1)c1ccccc1`, which AC50 [1] is on record?
A: 12.6 µM [rising, partial curve]

Q: For `O=C(COC(=O)c1cnccn1)c1ccc(OC(=O)c2ccccc2)cc1`, which AC50 [1] is on record?
A: 0.794 µM [rising, partial curve]

Q: Which AC50 [2] does the source give for `O=c1oc2c(CN3CCCC3)c(O)ccc2cc1-c1ccccc1` here?
A: 0.158 µM [rising, full curve, poor fit]

Q: For `COC(=O)c1ccc(C)c(NS(=O)(=O)c2ccc3c(c2)OCCO3)c1`, which AC50 [1] is on record?
A: 12.6 µM [rising, partial curve, poor fit]

Q: What does the source list for `CC1(C)Cc2cccc(C(=O)Nc3ccncc3)c2O1`?
A: AC50 [2]: 35.5 µM [falling, single point]; AC50 [1]: 35.5 µM [falling, single point]

Q: For `CCOc1ccccc1-c1nc(-c2ccc(NC(=O)Cc3ccccc3OC)cc2)no1`, which AC50 [1] is on record?
A: 20 µM [rising, single point]

Q: For `CCN(CC)C(=O)c1cc2sc3ccccc3c2s1`, which AC50 [2] is on record?
A: 20 µM [rising, single point]

Q: And the AC50 [1]?
A: 25.1 µM [rising, partial curve]

Q: For `COc1ccc(CC(=O)Nc2ccc(N3CCCCC3)cc2)cc1`, which AC50 [2] is on record?
A: 10 µM [falling, partial curve, poor fit]

Q: Which AC50 [2] does the source give for `CS(=O)(=O)Nc1cccc(-c2nc(Nc3ccc(F)cc3)c3ccccc3n2)c1` here?
A: 25.1 µM [falling, single point]

Q: And the AC50 [1]?
A: 35.5 µM [falling, single point]

Q: For `COc1cc(C(=O)N2C(=O)c3cccc(N)c3C2=O)cc(OC)c1OC`, which AC50 [2] is on record?
A: 0.00355 µM [rising, full curve, poor fit]

Q: And the AC50 [1]?
A: 0.00316 µM [rising, full curve, poor fit]

Q: For `COc1ccc(NC(=O)c2c(NCc3cccs3)sc3c2CCCC3)cc1`, which AC50 [1] is on record?
A: 22.4 µM [rising, single point]

Q: For `O=C(CN1C(=O)CCC1=O)NCC12CC3CC(CC(C3)C1)C2`, which AC50 [2] is on record?
A: 6.31 µM [rising, full curve, poor fit]

Q: What about the AC50 [1] of the same molecule?
A: 6.31 µM [rising, full curve, poor fit]

Q: Which AC50 [1] does the source give for `COc1ccccc1-c1nnc(NC(=O)C(C)SC2=NCCS2)s1` (centres undefined) here?
A: 11.2 µM [rising, partial curve]

Q: For `CC1CCC(NC(=O)c2ccc(/C=C3\Oc4ccccc4N(C)C3=O)cc2)CC1` (centres undefined), which AC50 [2] is on record?
A: 2.82 µM [falling, full curve]

Q: For `Cc1cccc(NS(=O)(=O)c2cc(C(=O)OCC(=O)Nc3cc(C)on3)ccc2C)c1`, which AC50 [1] is on record?
A: 7.94 µM [rising, partial curve]

Q: For `O=C(Nc1ccc(S(=O)(=O)NC2CCCCC2)cc1)c1ccco1`, which AC50 [1] is on record?
A: 4.47 µM [rising, partial curve, poor fit]

Q: Which AC50 [1] does the source give for `Cc1ccc(-n2ncc3c(N(CC(C)C)CC(C)C)ncnc32)c(C)c1` here?
A: 35.5 µM [rising, single point]

Q: With `CSc1ccc(/C=C/c2cc(=O)c3ccccc3[nH]2)cc1` as the molecule, how does the AC50 [2] read?
A: 4.47 µM [rising, full curve]

Q: What about the AC50 [1] of the same molecule?
A: 10 µM [rising, partial curve]

Q: For `CC(=O)N1CCCc2cc(S(=O)(=O)NCc3ccc(C)cc3)ccc21`, which AC50 [1] is on record?
A: 15.8 µM [rising, partial curve, poor fit]

Q: Which AC50 [2] does the source give for `CN(Cc1cc(=O)n2ccsc2n1)Cc1nc2ccccc2c(=O)[nH]1` here?
A: 0.0355 µM [falling, full curve, poor fit]

Q: What about the AC50 [1] of the same molecule?
A: 0.0708 µM [falling, full curve, poor fit]

Q: What does the source list for `CC1=NN(C(=O)COc2ccc(C)c(C)c2)C(O)(c2ccc(Cl)cc2)C1` (centres undefined)?
A: AC50 [2]: 12.6 µM [rising, partial curve]; AC50 [1]: 22.4 µM [rising, single point]

Q: What does the source list for `Cc1ccc(NC(=O)c2c(-c3c(F)cccc3Cl)noc2C)cc1F`?
A: AC50 [2]: 7.08 µM [rising, partial curve]; AC50 [1]: 11.2 µM [rising, single point]

Q: With `Cc1cc2nc(SCCOC(=O)Nc3ccccc3)nc(C)c2cc1C` as the molecule, how does the AC50 [2] read?
A: 15.8 µM [rising, partial curve, poor fit]

Q: And the AC50 [1]?
A: 14.1 µM [rising, single point]

Q: Which AC50 [2] does the source give for `CC(CNC(=O)C1CCN(S(=O)(=O)c2ccc3c(ccn3C)c2)CC1)c1ccccc1` (centres undefined) here?
A: 14.1 µM [falling, partial curve, poor fit]

Q: For `O=C(Nc1ncc(Cc2ccccc2Cl)s1)C1CCCO1` (centres undefined), which AC50 [1] is on record?
A: 7.94 µM [rising, partial curve]

Q: Which results are given for `O=c1oc2ccccc2c(NC(c2ccccc2)c2ccccc2)c1[N+](=O)[O-]`?
A: AC50 [2]: 31.6 µM [rising, single point]; AC50 [1]: 31.6 µM [rising, single point]

Q: For `COC(=O)C(C(=O)OC)C(C[N+](=O)[O-])c1ccc(O)c(OC)c1` (centres undefined), which AC50 [1] is on record?
A: 10 µM [rising, partial curve]

Q: With `C=CCNC(=O)NC(=O)CSc1nc2cc([N+](=O)[O-])ccc2n1-c1cccc(C(F)(F)F)c1` as the molecule, how does the AC50 [1] read?
A: 0.501 µM [rising, partial curve, poor fit]

Q: Which AC50 [2] does the source give for `O=C(CN1C(=O)/C(=C/c2cccc(Br)c2)SC1=S)Nc1cccnc1` here?
A: 8.91 µM [falling, partial curve, poor fit]

From PubChem BioAssay AID1487 (National Center for Advancing Translational Sciences (NCATS), 2009)
